The list shows a part of the results. These are further read-outs of the screen, such as a control signal, another cell line or another target. No call is given for them. Compounds called inactive in the main read-out are mostly missing here. The note in brackets gives the kind of curve behind each potency; many fits are weak.

This assay is described as follows: qHTS Assay for Modulators of Lamin A Splicing. The note with it: HeLa LMNA splicing GFP/RFP minigene ratio, 48 h. Summed up: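 S3 HeLa stable clones carrying a lamin A-EGFP splicing minigene plus DsRed2 were seeded at 600 cells/well in Opti-MEM with 2% FBS, pin-dosed and incubated 48 h at 37°C. Acumen cytometry (488 nm) gave the GFP/RFP total-intensity ratio.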
(Quantitative high-throughput screening tests each substance at several concentrations.)

The mark [1] stands for this setting: measured here: GFP splicing reporter channel.
Where [2] appears, read: measured here: RFP viability control channel.

`COc1ccc(C(C)=O)cc1COC(=O)c1cc(C)nc2ccccc12`: the AC50 (commonly the midpoint of the concentration-response curve, whichever way the signal moves) by setting is: under setting [1], 0.501 µM [rising, partial curve]; under setting [2], 1 µM [rising, single point]. As for `CC(Nc1nc(N2CCNCC2)nc2ccccc12)c1ccccc1` (centres undefined), under setting [1], the AC50 is 0.00501 µM [falling, full curve, poor fit]. `COc1ccccc1-c1nc(C#N)c(N2CCc3ccccc3C2)o1`: under setting [2], the AC50 was 35.5 µM [rising, single point]. On the same count and under the same terms, to `COc1ccc(C(=O)NC2(C(F)(F)F)NC(=O)N(CCCc3ccccc3)C2=O)cc1OC` (centres undefined) belongs 12.6 µM [rising, partial curve]; to `N#C/C(=N\Nc1cccc(Cl)c1)C(=O)c1ccccc1`, 11.2 µM [rising, partial curve]. `COc1ccc(OCC(=O)Nn2c(-c3ccc(C)cc3)nc3ccccc3c2=O)cc1`: the concentration at half-maximal activity (AC50) under setting [2] was 22.4 µM [rising, single point]. `Brc1ccc(C2=Nn3c(nnc3-c3n[nH]c4c3CCC4)SC2)cc1`: under setting [2], the AC50 was 0.562 µM [rising, full curve].

Turning to `COC(=O)c1cnc(N2CCCN(S(=O)(=O)c3ccc(C(F)(F)F)cc3)CC2)nc1C(F)(F)F`, under setting [1], the AC50 is 0.447 µM [rising, full curve]. In the case of `CCC(C)c1ccccc1NC(=O)C(C)N(C)Cc1cccc(OC)c1` (centres undefined), the AC50 runs as follows: under setting [1], 0.00501 µM [falling, full curve]; under setting [2], 0.794 µM [falling, full curve, poor fit]. Take `Cc1cc(S(=O)(=O)Nc2ccccc2C(=O)O)ccc1Cl`: the AC50 under setting [2] is 0.0178 µM [falling, full curve, poor fit]. On the same count and under the same terms, to `Cc1cc(NC(=O)CN2C(=O)CC(c3ccco3)Sc3ccccc32)no1` (centres undefined) belongs 20 µM [rising, single point]; to `COc1ccc(NC(=S)NC(NC(=O)c2cccc3ccccc23)C(Cl)(Cl)Cl)c([N+](=O)[O-])c1` (centres undefined), 14.1 µM [rising, single point]; to `O=C(CCCCCn1c(=O)[nH]c2ccsc2c1=O)N1CCCCC1`, 35.5 µM [rising, single point]. For the compound `Cc1ccccc1NC1=C/C(=N\S(=O)(=O)c2cccs2)c2ccccc2C1=O`, the half-maximal activity concentration (AC50) was 3.55 µM [falling, full curve] under setting [1] and 3.16 µM [falling, full curve] under setting [2]. As to `CC(C)Cn1c(CN(Cc2ccccc2)Cc2ccccc2)nc2c1c(=O)n(C)c(=O)n2C`, under setting [2], the AC50 was 35.5 µM [rising, partial curve, poor fit]. In the case of `Cc1ccc2nc(NC(=O)CSc3ncc(C(=O)Nc4ccccc4)c(=O)n3C)sc2c1`, the half-maximal activity concentration (AC50) was 0.0562 µM [falling, partial curve, poor fit] under setting [1] and 20 µM [falling, partial curve, poor fit] under setting [2]. As for `CCOc1ccccc1N(CC)C(=O)c1cc2ccc3cccnc3c2[nH]1`, under setting [1], the AC50 was 11.2 µM [falling, single point]. Turning to `Cc1ccc(C(=O)n2nc(-n3cccc3)c3c(C)cc(C)nc32)cc1`, under setting [2], the AC50 is 0.0355 µM [falling, full curve, poor fit]. Consider `COc1cc(Cl)ccc1NC(=S)N(CCCN1CCOCC1)Cc1cn(C)c2ccccc12`, for which the AC50 by setting is: under setting [1], 17.8 µM [rising, single point]; under setting [2], 14.1 µM [rising, partial curve]. As for `Cc1cccc(-n2ncc3c(NCc4cccs4)ncnc32)c1`, the half-maximal activity concentration (AC50) under setting [1] is 22.4 µM [rising, single point] and the AC50 under setting [2] is 20 µM [rising, partial curve]. Turning to `O=C(Nc1ccccc1F)c1ccc(CSc2ccccc2)o1`, the AC50 is 14.1 µM [rising, partial curve, poor fit] under setting [1] and 17.8 µM [rising, partial curve, poor fit] under setting [2].

As to `Cc1nc(-c2cccc(F)c2)sc1CCNC(=O)C(=O)Nc1ccc2c(c1)OCO2`, the AC50 by setting is: under setting [1], 25.1 µM [falling, single point]; under setting [2], 25.1 µM [falling, single point].

As for `O=C(N=Nc1c(O)n(Cc2ccccc2)c2ccccc12)c1ccc(O)cc1`, the AC50 under setting [2] is 12.6 µM [rising, partial curve, poor fit]. `Cc1cc(C2(c3ccc(O)c(C)c3)OC(=O)c3ccccc32)ccc1O`: the half-maximal activity concentration (AC50) under setting [2] was 35.5 µM [rising, single point].

As for `Cc1cccc(N2CCN(c3ncnc4onc(C)c34)CC2C)c1` (centres undefined), the half-maximal activity concentration (AC50) under setting [2] is 12.6 µM [rising, partial curve]. Consider `CCc1cccc(C)c1NC(=O)c1cn2c3c(ccc(Cl)c3c1=O)OC(C)C2` (centres undefined), for which the AC50 by setting is: under setting [1], 0.794 µM [falling, full curve, poor fit]; under setting [2], 0.891 µM [falling, full curve, poor fit]. In the case of `CCCCOc1ccc(C(O)(CCC)CCN2CCOCC2)cc1` (centres undefined), the AC50 runs as follows: under setting [1], 8.91 µM [rising, partial curve]; under setting [2], 12.6 µM [rising, partial curve]. As for `CN1CCN(c2ncnc3ccc(-c4ccoc4)cc23)CC1`, the AC50 under setting [1] is 3.98 µM [falling, partial curve, poor fit]. For the compound `O=C(NCCN1CCOCC1)c1ccc([N+](=O)[O-])cc1[N+](=O)[O-]`, the half-maximal activity concentration (AC50) is, setting by setting: under setting [1], 0.447 µM [falling, partial curve]; under setting [2], 0.794 µM [falling, partial curve].

On to `CCN1CCN(c2cc3c(cc2F)c(=O)c(S(=O)(=O)c2cc(C)cc(C)c2)cn3CC)CC1`, for which the AC50 under setting [1] was 0.794 µM [falling, full curve, poor fit]. Take `O=[N+]([O-])c1cc(-n2cccc2)ccc1N1CCOCC1`: the AC50 by setting is: under setting [1], 10 µM [rising, partial curve]; under setting [2], 0.0631 µM [rising, full curve, poor fit]. Regarding `CN(C)c1ccc(-c2nnn(Cc3ccccc3Br)n2)cc1`, the AC50 was 17.8 µM [rising, single point] under setting [1] and 22.4 µM [rising, single point] under setting [2]. For `CCOc1ccc(-c2nonc2NC(=O)COc2ccccc2)cc1`, under setting [1], the half-maximal activity concentration (AC50) was 0.0562 µM [rising, full curve, poor fit]. Turning to `CC1C/C(=C\c2cccnc2)C(=O)/C(=C/c2cccnc2)C1` (centres undefined), the AC50 was 0.631 µM [falling, partial curve] under setting [1] and 6.31 µM [falling, single point] under setting [2]. For the compound `COc1ccc(NC(=O)Cn2nnc(C(=O)Nc3ccc(C)c(F)c3)c2N)cc1Cl`, the AC50 under setting [2] is 5.62 µM [rising, single point].

Values taken from PubChem BioAssay AID1487 (National Center for Advancing Translational Sciences (NCATS), 2009).
